For some of these results: The comparison behind a weaker result is the experiment's own reference, which may not be listed here. For some of these results: Tags and fusion partners may be left off the protein sequences shown. For some of these results: For at least one entry, the source does not settle the construct or the ends of the probe. For some of these results: Where cells or extracts were used, other partners may take part. For some of these results: At least one verdict was read from the data and is not stated in words by the source. For some of these results: The direction of at least one scale is not stated here.
Key:
[1] = target: Xrn1 (Saccharomyces cerevisiae) (UniProt P22147); test: pull-down; settings: WT yeast lysate, MS identification, FcRAP: 1x lysis buffer, 4 C, 90 min, protein in an extract, label: 3'-biotin, letters put together from the description
[2] = target: T1, Rat1 (Saccharomyces cerevisiae) (UniProt Q02792); test: pull-down; settings: FcRAP: 1x lysis buffer, 4 C, 90 min, protein in an extract, label: 3'-biotin, letters put together from the description
T1 sequence (looked up, limits assumed): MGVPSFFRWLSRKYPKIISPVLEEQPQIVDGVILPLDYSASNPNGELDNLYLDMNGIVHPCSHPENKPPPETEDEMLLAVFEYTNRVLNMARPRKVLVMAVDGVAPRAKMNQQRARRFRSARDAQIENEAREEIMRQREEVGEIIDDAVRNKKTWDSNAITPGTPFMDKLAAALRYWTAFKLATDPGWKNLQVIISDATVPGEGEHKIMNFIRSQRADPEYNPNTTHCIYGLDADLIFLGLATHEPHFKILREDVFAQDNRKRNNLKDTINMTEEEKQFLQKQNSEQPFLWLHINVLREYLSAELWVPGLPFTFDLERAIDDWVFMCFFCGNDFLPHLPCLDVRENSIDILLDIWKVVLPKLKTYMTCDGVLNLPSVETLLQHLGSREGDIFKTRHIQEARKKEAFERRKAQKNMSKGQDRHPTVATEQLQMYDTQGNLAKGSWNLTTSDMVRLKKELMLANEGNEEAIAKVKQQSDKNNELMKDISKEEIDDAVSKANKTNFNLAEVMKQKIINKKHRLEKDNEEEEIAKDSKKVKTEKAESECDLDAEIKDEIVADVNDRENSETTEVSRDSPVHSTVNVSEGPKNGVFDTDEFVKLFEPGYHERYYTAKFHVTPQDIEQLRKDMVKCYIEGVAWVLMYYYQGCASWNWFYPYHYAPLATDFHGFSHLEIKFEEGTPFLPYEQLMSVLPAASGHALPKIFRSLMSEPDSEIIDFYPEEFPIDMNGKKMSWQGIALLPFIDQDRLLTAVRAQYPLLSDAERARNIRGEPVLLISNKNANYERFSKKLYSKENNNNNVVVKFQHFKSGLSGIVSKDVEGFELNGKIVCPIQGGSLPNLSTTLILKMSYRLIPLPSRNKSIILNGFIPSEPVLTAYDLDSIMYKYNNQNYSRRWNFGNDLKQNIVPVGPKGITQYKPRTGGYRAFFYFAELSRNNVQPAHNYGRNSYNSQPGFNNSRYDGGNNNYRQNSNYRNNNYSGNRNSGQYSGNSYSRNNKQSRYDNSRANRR

Chains of the proteins cited; added tags and fusions are not shown. Lines headed by an entry give the natural chain unless they say otherwise; changes in a name come on top.
UniProt P22147: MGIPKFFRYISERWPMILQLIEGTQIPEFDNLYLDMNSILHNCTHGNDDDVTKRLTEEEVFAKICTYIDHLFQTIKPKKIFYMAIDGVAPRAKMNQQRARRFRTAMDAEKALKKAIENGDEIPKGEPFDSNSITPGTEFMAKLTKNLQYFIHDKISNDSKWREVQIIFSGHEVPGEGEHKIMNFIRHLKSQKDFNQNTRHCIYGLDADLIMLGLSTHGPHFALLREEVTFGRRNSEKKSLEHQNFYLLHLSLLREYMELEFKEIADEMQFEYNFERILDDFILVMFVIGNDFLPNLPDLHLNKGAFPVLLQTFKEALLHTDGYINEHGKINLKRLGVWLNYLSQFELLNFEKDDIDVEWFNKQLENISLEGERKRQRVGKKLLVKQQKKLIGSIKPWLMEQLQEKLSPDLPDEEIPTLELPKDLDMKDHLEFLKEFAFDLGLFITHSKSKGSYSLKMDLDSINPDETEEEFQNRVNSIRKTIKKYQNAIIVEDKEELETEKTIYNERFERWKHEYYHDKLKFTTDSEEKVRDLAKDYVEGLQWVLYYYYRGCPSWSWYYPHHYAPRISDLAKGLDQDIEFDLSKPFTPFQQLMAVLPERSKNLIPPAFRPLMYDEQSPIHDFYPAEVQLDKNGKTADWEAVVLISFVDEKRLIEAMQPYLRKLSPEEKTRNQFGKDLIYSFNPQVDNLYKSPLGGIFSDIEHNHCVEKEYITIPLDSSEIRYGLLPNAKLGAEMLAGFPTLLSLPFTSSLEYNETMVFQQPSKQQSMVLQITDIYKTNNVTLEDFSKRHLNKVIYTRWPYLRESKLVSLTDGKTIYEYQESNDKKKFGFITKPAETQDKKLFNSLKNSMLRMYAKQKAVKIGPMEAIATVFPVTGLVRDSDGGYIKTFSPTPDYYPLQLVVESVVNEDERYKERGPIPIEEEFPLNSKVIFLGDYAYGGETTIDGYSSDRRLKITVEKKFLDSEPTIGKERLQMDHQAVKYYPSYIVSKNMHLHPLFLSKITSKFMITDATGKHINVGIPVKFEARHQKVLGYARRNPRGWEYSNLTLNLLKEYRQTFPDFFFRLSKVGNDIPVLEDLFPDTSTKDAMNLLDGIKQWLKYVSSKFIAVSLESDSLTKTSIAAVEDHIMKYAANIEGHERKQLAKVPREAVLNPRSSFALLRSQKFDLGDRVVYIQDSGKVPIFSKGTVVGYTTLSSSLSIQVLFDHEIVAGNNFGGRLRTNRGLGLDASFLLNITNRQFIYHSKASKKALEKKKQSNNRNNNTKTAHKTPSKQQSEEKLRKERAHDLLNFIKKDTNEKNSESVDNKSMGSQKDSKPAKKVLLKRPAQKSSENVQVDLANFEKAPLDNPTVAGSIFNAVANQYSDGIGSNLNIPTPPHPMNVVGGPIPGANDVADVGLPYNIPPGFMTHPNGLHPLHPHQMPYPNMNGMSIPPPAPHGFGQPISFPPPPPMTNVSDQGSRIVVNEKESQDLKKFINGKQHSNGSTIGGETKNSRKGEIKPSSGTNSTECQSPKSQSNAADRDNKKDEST

[3] = target: T2, Rai1 (Saccharomyces cerevisiae) (UniProt P53063); test: pull-down; settings: FcRAP: 1x lysis buffer, 4 C, 90 min, protein in an extract, label: 3'-biotin, letters put together from the description
T2 sequence (looked up, limits assumed): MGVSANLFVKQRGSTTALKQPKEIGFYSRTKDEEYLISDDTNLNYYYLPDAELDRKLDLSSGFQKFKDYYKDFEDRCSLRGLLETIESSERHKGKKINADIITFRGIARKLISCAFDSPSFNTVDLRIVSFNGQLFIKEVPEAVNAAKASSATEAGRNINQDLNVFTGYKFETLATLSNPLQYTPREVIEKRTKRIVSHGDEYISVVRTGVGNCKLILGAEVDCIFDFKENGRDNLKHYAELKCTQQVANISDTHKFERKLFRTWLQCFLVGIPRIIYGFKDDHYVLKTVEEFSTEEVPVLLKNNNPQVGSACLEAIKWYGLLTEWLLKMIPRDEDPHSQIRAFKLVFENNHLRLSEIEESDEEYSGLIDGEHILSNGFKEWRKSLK

[4] = target: T3, Kl Xrn1 (Kluyveromyces lactis) (UniProt Q6CJ09); test: EMSA; settings: nonspecific association, more readily competed by total yeast RNA; 5' triphosphate (Methods EMSA section prints pA-); EMSA: 10 mM Tris-HCl pH 7.5, 150 mM KCl, 1.5 mM MgCl2, 0.5 mM DTT, on ice 30 min, 5 pmol RNA with 2.5-7.5 pmol Xrn1, 6% gel in 0.5x TBE; recombinant protein; protein details: C-terminal 6xHis; label: 32P uniform; letters put together from the description
T3 sequence (looked up, limits assumed): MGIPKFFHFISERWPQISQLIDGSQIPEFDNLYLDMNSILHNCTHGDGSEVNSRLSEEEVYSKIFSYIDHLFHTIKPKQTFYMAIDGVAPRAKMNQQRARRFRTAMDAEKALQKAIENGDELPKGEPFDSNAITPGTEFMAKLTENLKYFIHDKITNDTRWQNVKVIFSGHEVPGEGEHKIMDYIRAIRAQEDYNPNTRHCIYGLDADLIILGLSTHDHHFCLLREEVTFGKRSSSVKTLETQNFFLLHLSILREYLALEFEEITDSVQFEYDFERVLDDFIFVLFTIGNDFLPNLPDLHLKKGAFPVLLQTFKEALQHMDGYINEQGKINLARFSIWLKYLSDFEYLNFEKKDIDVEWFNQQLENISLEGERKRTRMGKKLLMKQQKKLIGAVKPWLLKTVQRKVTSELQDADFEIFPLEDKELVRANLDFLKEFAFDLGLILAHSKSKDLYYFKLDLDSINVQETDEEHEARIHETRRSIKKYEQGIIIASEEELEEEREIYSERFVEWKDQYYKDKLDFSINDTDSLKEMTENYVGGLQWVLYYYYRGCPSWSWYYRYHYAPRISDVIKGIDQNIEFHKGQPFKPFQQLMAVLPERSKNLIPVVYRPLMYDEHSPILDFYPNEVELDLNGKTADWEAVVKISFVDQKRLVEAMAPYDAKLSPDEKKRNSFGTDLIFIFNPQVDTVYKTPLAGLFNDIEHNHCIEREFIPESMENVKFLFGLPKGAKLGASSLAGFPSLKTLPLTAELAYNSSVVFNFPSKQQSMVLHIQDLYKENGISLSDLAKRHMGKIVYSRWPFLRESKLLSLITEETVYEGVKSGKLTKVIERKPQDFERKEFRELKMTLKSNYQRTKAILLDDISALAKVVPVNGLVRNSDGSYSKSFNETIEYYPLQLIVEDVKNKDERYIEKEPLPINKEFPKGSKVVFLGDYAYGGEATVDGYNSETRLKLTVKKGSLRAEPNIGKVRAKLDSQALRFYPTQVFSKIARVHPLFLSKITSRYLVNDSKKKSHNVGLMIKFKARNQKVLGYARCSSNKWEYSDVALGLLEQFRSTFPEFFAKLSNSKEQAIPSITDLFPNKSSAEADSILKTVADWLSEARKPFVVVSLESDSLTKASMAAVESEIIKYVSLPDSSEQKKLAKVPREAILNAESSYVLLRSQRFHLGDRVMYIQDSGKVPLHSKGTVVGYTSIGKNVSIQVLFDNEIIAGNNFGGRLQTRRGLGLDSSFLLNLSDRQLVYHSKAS

[5] = WT lysate, selective for FAD over m7G bait, 5' m7GpppA cap

Sequence: AGUUGGUGGUUGUUGUGUGUUUGUGGUUGGUUUGUUUGGC [FAD-capped RNA, 3'-biotin]
- binding signal (spectral counts) ([1]; 5' FAD cap): 676
- binding result ([2]; WT, xrn1 deletion and rai1 deletion lysates, MS identification, 5' FAD cap): binds
- binding result ([3]; WT and xrn1 deletion lysates, MS identification, 5' FAD cap): binds

Sequence: AGUUGGUGGUUGUUGUGUGUUUGUGGUUGGUUUGUUUGGC [m7G-capped RNA, 3'-biotin]
- binding signal (spectral counts) ([1]; 5' m7GpppA cap): 74
- binding result [2, 5]: binds more weakly
- binding result [3, 5]: binds more weakly

Sequence: AGUUGGUGGUUGUUGUGUGUUUGUGGUUGGUUUGUUUGGC [triphosphate RNA (pppA-)]
- binding result [4]: binds more weakly

Reference: publication PMC9410882, “Identification of a novel deFADding activity in human, yeast and bacterial 5′ to 3′ exoribonucleases” (Nucleic Acids Research, 2022)
